The values that follow come from patent publication US9120744B2, “Plasminogen activator inhibitor-1 inhibitors and methods of use thereof to modulate lipid metabolism” (THE REGENTS OF THE UNIVERSITY OF MICHIGAN, priority 2007, dated 2015).

The chains behind the UniProt entries cited, without tags or fusion partners. Residues count along the entry.
UniProt P05121, 24-402: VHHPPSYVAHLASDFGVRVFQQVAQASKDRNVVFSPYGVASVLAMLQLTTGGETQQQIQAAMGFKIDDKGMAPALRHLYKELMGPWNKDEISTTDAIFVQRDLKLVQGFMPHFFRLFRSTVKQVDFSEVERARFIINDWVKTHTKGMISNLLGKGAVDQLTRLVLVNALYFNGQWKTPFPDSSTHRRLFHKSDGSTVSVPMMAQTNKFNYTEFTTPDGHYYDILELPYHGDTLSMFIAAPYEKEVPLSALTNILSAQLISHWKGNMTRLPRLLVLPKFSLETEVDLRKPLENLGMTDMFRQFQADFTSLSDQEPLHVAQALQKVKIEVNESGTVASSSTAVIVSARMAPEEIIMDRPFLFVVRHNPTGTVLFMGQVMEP

The test deals with recombinant active human PAI-1 (Homo sapiens (Human), UniProt P05121). Nature of the test: β-trypsin screening assay for PAI-1 inhibitors.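 Also: fluorogenic readout with PAI-1 and β-trypsin at 10:1 molar ratio, untreated PAI-1 wells set as 100% PAI-1 activity and β-trypsin alone as 0%.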 It counts as biochemical. As to conditions: 10 μM compound; hit = more than 3 standard deviations above control.

In the case of `CN1CCN(CCCN2c3ccccc3Sc3ccc(Cl)cc32)CC1.O=C(O)/C=C\C(=O)O` [10H-Phenothiazine, 2-chloro-10-[3-(4-methyl-1-piperazinyl)propyl-], the “screening hit: restoration of β-trypsin activity” value is reported as “demonstrate PAI-1 inhibitor activity”.
